Patent US8716355B2, “Hydroxylated tolans and related compounds in the treatment of a cancer” (Kent State University, priority 2007, dated 2014)
For at least one compound, name, drawing or mass did not settle the structure.

Test system: HSV-1
Test: HSV-1 replication in infected Vero cells (plaque assay)
Type: cell-based, Herpes Simplex Virus-Type 1
Details: at CD50, 75% and 50% of CD50; 24, 48, 72 h
Experimental: For this purpose HSV-1 replication at 24, 48 and 72 h was examined in the presence or absence of varying concentrations of the polyphenol.
The SI is the ratio of the CD50 divided by a selected inhibitory concentration (IC %).
Viral inhibition by Tolan-3 appeared to occur after viral entry into cells. […] Subsequently, the compound was removed and replaced with culture medium alone, and the incubated continued for 48 or 72 more hrs. In a second experiment, HSV-1 infected Vero cells were incubated with 350 μM Tolan-3 for 48 h. Thereafter, the Tolan-3 was removed and replaced by medium and the incubation continued for an additional 24 h. Viral titers were calculated by a standard plaque assay.

Compound: Oc1cc(O)cc(/C=C/c2cc(O)cc(O)c2)c1 [Stil-4, tetrahydroxystilbene]
- Effect on HSV-1 viral replication in Vero cells (in words): no substantial reduction in viral replication
